No constants are given. Whether binding was seen depends on the method and setting. For some assays here: Binding seen in cells or lysates may run through a third protein. Some binding calls cover weakened binding; strength is not graded here. For some assays here: Where a sequence is shown, tags or fusion partners need not be part of it.

Protein sequences, listed by entry. Tags and fused reporters are not part of them.
UniProt Q9FJD0: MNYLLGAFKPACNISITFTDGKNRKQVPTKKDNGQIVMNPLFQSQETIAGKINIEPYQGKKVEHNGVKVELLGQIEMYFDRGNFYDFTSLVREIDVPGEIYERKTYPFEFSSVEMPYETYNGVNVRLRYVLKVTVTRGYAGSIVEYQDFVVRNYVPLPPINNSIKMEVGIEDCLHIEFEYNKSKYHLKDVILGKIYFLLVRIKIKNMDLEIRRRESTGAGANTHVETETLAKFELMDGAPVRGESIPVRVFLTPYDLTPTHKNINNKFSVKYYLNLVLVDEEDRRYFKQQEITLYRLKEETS

Assay [1] addresses T1, AtRGS1-nYFP (Arabidopsis thaliana) (UniProt Q8H1F2).
T1 sequence: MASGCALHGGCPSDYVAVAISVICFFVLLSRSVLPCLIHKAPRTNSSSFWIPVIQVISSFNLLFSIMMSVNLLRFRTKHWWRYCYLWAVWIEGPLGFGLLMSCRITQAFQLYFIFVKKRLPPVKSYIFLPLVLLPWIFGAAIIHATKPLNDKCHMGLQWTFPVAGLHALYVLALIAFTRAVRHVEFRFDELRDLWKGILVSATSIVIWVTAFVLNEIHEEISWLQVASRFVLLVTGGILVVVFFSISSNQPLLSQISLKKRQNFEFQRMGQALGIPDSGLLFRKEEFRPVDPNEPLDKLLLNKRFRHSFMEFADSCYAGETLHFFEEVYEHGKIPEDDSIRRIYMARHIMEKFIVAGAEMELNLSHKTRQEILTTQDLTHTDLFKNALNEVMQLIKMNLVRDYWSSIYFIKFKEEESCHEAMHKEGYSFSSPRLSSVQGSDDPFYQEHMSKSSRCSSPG
Nature of the assay: split reporter.

Assay [2] deals with VPS26B, BiFC fusion (VPS26B-cYFP) (Arabidopsis) (UniProt Q9T091). Kind of assay: split reporter.
Assay [3] concerns the target AtVPS26B (split firefly-luciferase fusions AtVPS26B-nLUC and cLUC-AtVPS26B) (Arabidopsis) (UniProt Q9T091). Kind of assay: split reporter.
Assay [4] addresses AtVPS26A (split firefly-luciferase fusions AtVPS26A-nLUC and cLUC-AtVPS26A) (Arabidopsis) (UniProt Q9FJD0). Kind of assay: split reporter.
The target of assay [5] is T2, AtRGS1-nLUC (Arabidopsis thaliana) (UniProt Q8H1F2).
T2 sequence: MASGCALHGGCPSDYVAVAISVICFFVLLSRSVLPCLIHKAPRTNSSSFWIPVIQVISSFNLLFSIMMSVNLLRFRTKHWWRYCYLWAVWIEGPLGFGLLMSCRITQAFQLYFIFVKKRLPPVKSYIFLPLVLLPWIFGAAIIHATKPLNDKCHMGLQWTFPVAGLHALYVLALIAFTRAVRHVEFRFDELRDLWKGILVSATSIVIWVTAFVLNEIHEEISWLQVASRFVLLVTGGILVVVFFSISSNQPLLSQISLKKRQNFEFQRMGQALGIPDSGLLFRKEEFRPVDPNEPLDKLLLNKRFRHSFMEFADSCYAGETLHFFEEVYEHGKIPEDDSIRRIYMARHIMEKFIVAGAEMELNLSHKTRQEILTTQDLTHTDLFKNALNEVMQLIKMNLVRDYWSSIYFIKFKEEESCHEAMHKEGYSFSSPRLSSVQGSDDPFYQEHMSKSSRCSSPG
Kind of assay: split reporter.

Assay [6] concerns the target T3, RGS-ΔCt (AtRGS1 amino acids 284–416) (Arabidopsis thaliana) (UniProt Q8H1F2).
T3 sequence: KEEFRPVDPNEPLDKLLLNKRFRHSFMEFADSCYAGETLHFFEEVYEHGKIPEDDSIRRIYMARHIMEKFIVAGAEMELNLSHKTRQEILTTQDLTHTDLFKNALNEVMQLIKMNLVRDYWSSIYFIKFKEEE
Nature of the assay: two-hybrid.

Assay [7] concerns the target T4, RGS-ΔCtS405,406A (Arabidopsis thaliana) (UniProt Q8H1F2).
T4 sequence: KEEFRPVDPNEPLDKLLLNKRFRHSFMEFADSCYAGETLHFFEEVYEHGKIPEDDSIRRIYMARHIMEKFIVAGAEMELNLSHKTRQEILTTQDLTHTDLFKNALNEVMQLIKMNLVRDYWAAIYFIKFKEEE
Kind of assay: two-hybrid.

Assay [8] addresses T5, pAS–RGS-J5 (AtRGS1 amino acids 284–459) (Arabidopsis thaliana) (UniProt Q8H1F2).
T5 sequence: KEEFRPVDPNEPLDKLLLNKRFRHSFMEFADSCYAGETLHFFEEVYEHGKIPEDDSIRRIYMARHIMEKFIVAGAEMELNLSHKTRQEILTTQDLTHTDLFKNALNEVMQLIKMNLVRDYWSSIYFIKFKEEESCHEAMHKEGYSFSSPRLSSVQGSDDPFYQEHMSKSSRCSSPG
Nature of the assay: two-hybrid.

In assay [9] the target is T6, AtVPS26B (split firefly-luciferase fusions AtVPS26B-nLUC and cLUC-AtVPS26B) (Arabidopsis), Q9T091.
T6 chain: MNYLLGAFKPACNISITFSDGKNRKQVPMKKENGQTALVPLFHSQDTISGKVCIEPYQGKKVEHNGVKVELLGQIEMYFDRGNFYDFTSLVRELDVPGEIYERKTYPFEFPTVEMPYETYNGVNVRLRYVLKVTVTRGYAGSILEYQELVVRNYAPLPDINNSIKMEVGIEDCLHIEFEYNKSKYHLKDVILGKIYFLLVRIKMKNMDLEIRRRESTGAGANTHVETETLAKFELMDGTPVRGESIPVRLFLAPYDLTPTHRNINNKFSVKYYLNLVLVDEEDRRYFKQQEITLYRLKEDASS
Nature of the assay: split reporter. The conditions noted are these: remark: other sources report otherwise.

Assay [10] concerns the target T7, AGB1/AGG1 (AtAGB1-nLUC co-expressed with mCherry-AtAGG1) (Arabidopsis) (UniProt P49177+Q9FDX9).
T7 sequence 1: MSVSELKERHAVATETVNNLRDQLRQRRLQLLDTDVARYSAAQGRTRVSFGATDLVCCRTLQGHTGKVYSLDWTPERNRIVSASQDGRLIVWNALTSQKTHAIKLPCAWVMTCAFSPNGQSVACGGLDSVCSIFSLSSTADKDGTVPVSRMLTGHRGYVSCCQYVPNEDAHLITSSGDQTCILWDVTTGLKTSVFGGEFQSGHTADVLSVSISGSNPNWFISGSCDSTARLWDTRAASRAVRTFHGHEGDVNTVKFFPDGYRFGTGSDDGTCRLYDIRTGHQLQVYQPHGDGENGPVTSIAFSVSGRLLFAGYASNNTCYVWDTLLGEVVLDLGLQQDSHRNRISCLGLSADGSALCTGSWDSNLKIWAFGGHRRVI
T7 sequence 2: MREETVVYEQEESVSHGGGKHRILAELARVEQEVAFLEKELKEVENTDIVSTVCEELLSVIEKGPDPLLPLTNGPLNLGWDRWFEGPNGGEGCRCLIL
Nature of the assay: split reporter.

For the molecule “VPS26A, BiFC fusion (cYFP-VPS26A) (from UniProt Q9FJD0 1-302)”, the binding result in [1] and in assay [2] was “binds” throughout.
“VPS26B, BiFC fusion (VPS26B-cYFP) (from UniProt Q9T091 1-303)”: the binding entry in [1] was “binds”.
For the molecule “AtVPS26A (split firefly-luciferase fusions AtVPS26A-nLUC and cLUC-AtVPS26A) (from UniProt Q9FJD0 1-302)”, the binding result in [3] is on record as “binds”; in assay [4], “no binding”; in [5], “binds”.
For “pACTGW–AtVPS26B (from UniProt Q9T091 1-303)”, the binding result is reported as “binds” in assay [6], “no binding” in assay [7] and “binds” in assay [8].

B1: AtVPS26B (split firefly-luciferase fusions AtVPS26B-nLUC and cLUC-AtVPS26B), Q9T091 1-303 (protein)
chain: MNYLLGAFKPACNISITFSDGKNRKQVPMKKENGQTALVPLFHSQDTISGKVCIEPYQGKKVEHNGVKVELLGQIEMYFDRGNFYDFTSLVRELDVPGEIYERKTYPFEFPTVEMPYETYNGVNVRLRYVLKVTVTRGYAGSILEYQELVVRNYAPLPDINNSIKMEVGIEDCLHIEFEYNKSKYHLKDVILGKIYFLLVRIKMKNMDLEIRRRESTGAGANTHVETETLAKFELMDGTPVRGESIPVRLFLAPYDLTPTHRNINNKFSVKYYLNLVLVDEEDRRYFKQQEITLYRLKEDASS
Turning to B1, the binding entry in [9] was “binds”.

B2: cLUC-AtGPA1 (protein, UniProt P18064 1-383)
chain: MGLLCSRSRHHTEDTDENTQAAEIERRIEQEAKAEKHIRKLLLLGAGESGKSTIFKQIKLLFQTGFDEGELKSYVPVIHANVYQTIKLLHDGTKEFAQNETDSAKYMLSSESIAIGEKLSEIGGRLDYPRLTKDIAEGIETLWKDPAIQETCARGNELQVPDCTKYLMENLKRLSDINYIPTKEDVLYARVRTTGVVEIQFSPVGENKKSGEVYRLFDVGGQRNERRKWIHLFEGVTAVIFCAAISEYDQTLFEDEQKNRMMETKELFDWVLKQPCFEKTSFMLFLNKFDIFEKKVLDVPLNVCEWFRDYQPVSSGKQEIEHAYEFVKKKFEELYYQNTAPDRVDRVFKIYRTTALDQKLVKKTFKLVDETLRRRNLLEAGLL
For the molecule B2, the binding result in assay [10] is on record as “binds”.
